The results in this text go back to PMC9368491.

Chains of the proteins cited; added tags and fusions are not shown.
UniProt P49023: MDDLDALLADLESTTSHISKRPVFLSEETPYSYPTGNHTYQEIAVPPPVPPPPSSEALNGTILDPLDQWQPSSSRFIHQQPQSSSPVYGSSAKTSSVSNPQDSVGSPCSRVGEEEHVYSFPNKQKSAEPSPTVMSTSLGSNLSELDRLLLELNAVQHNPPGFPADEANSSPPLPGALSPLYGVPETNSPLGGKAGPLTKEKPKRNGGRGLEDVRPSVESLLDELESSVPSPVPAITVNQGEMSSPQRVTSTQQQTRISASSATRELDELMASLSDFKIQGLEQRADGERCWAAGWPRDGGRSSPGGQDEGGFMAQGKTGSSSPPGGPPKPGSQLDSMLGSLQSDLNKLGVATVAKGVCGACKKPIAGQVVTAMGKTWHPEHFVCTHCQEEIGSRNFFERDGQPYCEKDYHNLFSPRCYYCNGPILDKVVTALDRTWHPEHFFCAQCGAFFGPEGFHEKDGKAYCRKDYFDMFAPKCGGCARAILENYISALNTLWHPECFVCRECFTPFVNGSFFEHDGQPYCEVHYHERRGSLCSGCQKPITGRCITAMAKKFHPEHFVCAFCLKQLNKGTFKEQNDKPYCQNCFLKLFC
UniProt Q05397: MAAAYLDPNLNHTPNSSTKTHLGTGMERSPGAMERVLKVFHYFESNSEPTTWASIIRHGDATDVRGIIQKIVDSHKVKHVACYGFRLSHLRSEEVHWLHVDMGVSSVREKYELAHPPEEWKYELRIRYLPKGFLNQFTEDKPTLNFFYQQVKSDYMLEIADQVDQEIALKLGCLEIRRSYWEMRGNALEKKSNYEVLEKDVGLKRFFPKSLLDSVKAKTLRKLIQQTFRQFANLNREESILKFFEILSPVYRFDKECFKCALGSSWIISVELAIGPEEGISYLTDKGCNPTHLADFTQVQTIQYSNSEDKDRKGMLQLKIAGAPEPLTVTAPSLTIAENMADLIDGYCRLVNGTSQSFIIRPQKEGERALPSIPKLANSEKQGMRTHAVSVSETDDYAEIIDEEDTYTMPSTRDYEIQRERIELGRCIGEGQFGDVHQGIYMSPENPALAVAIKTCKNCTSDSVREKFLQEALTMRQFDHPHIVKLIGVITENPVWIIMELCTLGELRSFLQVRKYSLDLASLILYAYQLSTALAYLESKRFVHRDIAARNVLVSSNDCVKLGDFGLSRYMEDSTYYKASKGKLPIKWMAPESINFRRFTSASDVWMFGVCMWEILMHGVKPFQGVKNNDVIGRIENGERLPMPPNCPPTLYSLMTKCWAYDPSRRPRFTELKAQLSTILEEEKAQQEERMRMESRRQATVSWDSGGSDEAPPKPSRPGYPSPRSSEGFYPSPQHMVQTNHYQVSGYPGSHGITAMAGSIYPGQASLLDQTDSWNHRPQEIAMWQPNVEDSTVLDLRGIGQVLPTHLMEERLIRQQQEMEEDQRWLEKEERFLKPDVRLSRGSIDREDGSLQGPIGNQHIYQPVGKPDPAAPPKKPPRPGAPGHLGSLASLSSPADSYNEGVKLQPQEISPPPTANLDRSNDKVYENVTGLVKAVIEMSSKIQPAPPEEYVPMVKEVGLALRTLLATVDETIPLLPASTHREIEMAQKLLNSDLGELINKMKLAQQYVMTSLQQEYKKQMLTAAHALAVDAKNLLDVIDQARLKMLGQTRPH
UniProt P15924: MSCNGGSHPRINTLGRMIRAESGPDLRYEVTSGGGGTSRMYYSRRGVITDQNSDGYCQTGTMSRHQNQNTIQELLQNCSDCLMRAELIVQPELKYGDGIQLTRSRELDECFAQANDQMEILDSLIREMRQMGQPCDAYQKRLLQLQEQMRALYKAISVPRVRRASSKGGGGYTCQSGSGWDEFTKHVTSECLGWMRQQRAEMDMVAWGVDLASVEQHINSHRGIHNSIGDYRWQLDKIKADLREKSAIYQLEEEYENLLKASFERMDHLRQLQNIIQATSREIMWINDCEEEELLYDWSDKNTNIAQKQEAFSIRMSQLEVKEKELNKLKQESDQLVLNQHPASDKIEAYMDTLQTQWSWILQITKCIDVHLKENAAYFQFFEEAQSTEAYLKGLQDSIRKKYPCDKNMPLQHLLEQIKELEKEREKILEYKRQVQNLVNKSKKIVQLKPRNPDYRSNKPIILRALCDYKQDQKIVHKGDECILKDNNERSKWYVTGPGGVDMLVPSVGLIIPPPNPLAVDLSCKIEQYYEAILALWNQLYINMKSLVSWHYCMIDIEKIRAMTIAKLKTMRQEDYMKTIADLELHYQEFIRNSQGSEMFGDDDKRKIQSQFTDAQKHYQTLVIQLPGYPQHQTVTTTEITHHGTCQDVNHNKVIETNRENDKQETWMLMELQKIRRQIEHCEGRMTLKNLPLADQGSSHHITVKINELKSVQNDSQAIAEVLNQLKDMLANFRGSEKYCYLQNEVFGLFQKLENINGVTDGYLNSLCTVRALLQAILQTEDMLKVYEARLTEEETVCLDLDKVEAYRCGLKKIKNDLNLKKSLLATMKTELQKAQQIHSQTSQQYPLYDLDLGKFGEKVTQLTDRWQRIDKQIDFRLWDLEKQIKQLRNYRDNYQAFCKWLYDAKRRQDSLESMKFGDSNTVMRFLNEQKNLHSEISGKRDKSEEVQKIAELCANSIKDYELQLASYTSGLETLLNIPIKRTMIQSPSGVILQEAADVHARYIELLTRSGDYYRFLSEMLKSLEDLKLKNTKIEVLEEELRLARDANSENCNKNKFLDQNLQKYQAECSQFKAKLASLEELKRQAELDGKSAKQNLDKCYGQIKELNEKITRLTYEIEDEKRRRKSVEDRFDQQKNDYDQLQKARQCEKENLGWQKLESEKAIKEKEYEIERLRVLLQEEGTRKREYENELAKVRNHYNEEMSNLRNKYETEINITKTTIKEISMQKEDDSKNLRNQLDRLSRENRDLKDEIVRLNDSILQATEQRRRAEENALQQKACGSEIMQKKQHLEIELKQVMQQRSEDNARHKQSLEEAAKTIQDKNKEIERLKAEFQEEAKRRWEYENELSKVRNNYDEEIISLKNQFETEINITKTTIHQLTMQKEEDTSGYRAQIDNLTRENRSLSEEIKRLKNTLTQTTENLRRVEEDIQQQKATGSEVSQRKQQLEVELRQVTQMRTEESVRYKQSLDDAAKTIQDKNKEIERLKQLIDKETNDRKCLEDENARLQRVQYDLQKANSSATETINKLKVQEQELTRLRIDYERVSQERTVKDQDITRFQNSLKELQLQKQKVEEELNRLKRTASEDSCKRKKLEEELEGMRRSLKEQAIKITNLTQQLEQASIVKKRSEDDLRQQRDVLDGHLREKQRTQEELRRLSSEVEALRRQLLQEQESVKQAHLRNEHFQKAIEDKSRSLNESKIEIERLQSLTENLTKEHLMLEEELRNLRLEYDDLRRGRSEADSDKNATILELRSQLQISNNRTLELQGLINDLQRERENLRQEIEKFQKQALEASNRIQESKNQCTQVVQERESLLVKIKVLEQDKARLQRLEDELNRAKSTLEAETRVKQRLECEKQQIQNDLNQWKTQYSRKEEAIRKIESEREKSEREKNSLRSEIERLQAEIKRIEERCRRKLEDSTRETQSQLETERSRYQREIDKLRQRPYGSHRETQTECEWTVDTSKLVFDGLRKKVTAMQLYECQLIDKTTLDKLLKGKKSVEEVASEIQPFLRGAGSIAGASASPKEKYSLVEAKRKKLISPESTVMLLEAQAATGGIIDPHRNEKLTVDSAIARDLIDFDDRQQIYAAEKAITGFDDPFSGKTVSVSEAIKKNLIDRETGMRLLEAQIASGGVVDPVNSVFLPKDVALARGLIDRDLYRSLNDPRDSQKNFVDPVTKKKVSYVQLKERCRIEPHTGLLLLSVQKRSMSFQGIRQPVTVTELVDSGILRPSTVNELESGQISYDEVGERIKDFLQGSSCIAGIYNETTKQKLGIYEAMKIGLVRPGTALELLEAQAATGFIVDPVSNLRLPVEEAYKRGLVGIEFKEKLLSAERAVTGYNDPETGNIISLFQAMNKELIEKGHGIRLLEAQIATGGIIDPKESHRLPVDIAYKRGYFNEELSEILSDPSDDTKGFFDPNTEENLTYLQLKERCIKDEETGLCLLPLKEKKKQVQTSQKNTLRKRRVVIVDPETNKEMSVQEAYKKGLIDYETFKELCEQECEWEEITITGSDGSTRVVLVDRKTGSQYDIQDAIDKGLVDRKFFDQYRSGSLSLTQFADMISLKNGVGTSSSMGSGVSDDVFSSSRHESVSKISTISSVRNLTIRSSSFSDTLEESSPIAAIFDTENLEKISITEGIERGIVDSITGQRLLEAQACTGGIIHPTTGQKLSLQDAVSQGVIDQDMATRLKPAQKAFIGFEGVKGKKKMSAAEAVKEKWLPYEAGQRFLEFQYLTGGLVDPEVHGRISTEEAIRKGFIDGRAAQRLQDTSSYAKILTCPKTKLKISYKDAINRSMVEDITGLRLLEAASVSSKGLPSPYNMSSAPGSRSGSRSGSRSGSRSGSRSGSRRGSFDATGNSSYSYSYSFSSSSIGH

Results are given in words; binding and its absence hold for the method and conditions named. In cells and extracts the contact can be indirect. Here binding means that the protein was enriched with, or labelled near, the bait; the list need not be complete.

Assay [1] deals with β-catenin (human (endogenous in MDA-MB-231)) (UniProt P35222). The assay is described as follows: affinity purification with mass spectrometry; MDA-MB-231 cells treated with DMSO or 50 μM NS1643; lysate incubated overnight at 4 °C with anti-β-catenin antibody crosslinked to Protein A/G magnetic beads; eluate TMT6plex labelled, LC-MS/MS; protein intensity normalised to β-catenin intensity.

Assay [2] concerns the target T1, β-catenin (human (endogenous in MDA-MB-231)), P35222.
T1 chain: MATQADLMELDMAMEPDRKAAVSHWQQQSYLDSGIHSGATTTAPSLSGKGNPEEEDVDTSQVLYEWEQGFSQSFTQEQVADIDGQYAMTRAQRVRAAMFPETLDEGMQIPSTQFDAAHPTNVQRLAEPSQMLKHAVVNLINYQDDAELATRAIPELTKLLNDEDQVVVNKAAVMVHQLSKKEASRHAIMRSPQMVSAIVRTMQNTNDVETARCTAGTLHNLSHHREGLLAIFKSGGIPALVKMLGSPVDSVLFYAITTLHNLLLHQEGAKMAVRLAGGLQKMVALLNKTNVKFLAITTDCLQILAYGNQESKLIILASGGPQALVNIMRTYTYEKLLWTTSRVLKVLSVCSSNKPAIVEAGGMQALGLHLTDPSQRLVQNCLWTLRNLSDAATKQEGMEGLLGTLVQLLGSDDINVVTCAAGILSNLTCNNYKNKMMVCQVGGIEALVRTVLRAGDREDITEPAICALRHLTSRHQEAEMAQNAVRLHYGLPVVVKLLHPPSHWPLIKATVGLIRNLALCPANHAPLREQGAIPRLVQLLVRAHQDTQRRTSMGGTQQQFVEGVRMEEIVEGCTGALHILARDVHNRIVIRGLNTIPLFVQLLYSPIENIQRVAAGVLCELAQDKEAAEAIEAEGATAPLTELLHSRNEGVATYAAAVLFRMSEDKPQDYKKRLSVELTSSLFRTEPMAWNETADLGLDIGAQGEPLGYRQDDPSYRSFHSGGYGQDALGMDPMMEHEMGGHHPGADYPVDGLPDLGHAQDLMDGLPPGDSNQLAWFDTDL
The assay is described as above. As to conditions: remark: other sources report otherwise.

Regarding paxillin (from UniProt P49023 1-591), the binding entry in assay [1] is listed as “binds”.

With “focal adhesion kinase (FAK) (from UniProt Q05397 1-1052)”, the binding result in assay [1] is reported as “binds”.

As to “desmoplakin (from UniProt P15924 1-2871)”, the binding result in assay [1] is reported as “binds”.

B1: desmoglein-2, Q14126 50-1118 (protein)
chain: AWITAPVALREGEDLSKKNPIAKIHSDLAEERGLKITYKYTGKGITEPPFGIFVFNKDTGELNVTSILDREETPFFLLTGYALDARGNNVEKPLELRIKVLDINDNEPVFTQDVFVGSVEELSAAHTLVMKINATDADEPNTLNSKISYRIVSLEPAYPPVFYLNKDTGEIYTTSVTLDREEHSSYTLTVEARDGNGEVTDKPVKQAQVQIRILDVNDNIPVVENKVLEGMVEENQVNVEVTRIKVFDADEIGSDNWLANFTFASGNEGGYFHIETDAQTNEGIVTLIKEVDYEEMKNLDFSVIVANKAAFHKSIRSKYKPTPIPIKVKVKNVKEGIHFKSSVISIYVSESMDRSSKGQIIGNFQAFDEDTGLPAHARYVKLEDRDNWISVDSVTSEIKLAKLPDFESRYVQNGTYTVKIVAISEDYPRKTITGTVLINVEDINDNCPTLIEPVQTICHDAEYVNVTAEDLDGHPNSGPFSFSVIDKPPGMAEKWKIARQESTSVLLQQSEKKLGRSEIQFLISDNQGFSCPEKQVLTLTVCECLHGSGCREAQHDSYVGLGPAAIALMILAFLLLLLVPLLLLMCHCGKGAKGFTPIPGTIEMLHPWNNEGAPPEDKVVPSFLPVDQGGSLVGRNGVGGMAKEATMKGSSSASIVKGQHEMSEMDGRWEEHRSLLSGRATQFTGATGAIMTTETTKTARATGASRDMAGAQAAAVALNEEFLRNYFTDKAASYTEEDENHTAKDCLLVYSQEETESLNASIGCCSFIEGELDDRFLDDLGLKFKTLAEVCLGQKIDINKEIEQRQKPATETSMNTASHSLCEQTMVNSENTYSSGSSFPVPKSLQEANAEKVTQEIVTERSVSSRQAQKVATPLPDPMASRNVIATETSYVTGSTMPPTTVILGPSQPQSLIVTERVYAPASTLVDQPYANEGTVVVTERVIQPHGGGSNPLEGTQHLQDVPYVMVRERESFLAPSSGVQPTLAMPNIAVGQNVTVTERVLAPASTLQSSYQIPTENSMTARNTTVSGAGVPGPLPDFGLEESGHSNSTITTSSTRVTKHSTVQHSYS
With B1, the binding result in assay [2] is “binds”.
